Source: the supplement of paper PMC9454738
Structures can show the parent of a compound that is named as a salt. This is one part of the list. Single values are uncertain here, since repeats match poorly.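 Triple-negative MDA-MB-231 breast cancer cells and their brain-metastatic MDA-MB-231BRM derivative each stably expressed empty vector, full-length GLI1 or truncated tGLI1. CellTiter-Blue measured viability at 48 h relative to 1% DMSO vehicle. Compounds reducing viability 20% more in tGLI1 cells than in vector and GLI1 cells counted as tGLI1-selective.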

Assays:
Experiment in all cases: cell viability relative to vehicle (DMSO) control (fraction); higher = more viable cells (less growth inhibition)
Conditions in all cases: treatment time 48 h
MDA-MB-231 GLI1 = tested on: MDA-MB-231 GLI1
MDA-MB-231 Vector = tested on: MDA-MB-231 Vector
MDA-MB-231 tGLI1 = tested on: MDA-MB-231 tGLI1
MDA-MB-231BRM GLI1 = tested on: MDA-MB-231BRM GLI1
MDA-MB-231BRM Vector = tested on: MDA-MB-231BRM Vector
MDA-MB-231BRM tGLI1 = tested on: MDA-MB-231BRM tGLI1

| Structure (SMILES) | cell viability (MDA-MB-231 GLI1; 0.05 µM) | cell viability (MDA-MB-231 GLI1; 0.5 µM) | cell viability (MDA-MB-231 GLI1; 5 µM) | cell viability (MDA-MB-231 Vector; 0.05 µM) | cell viability (MDA-MB-231 Vector; 0.5 µM) | cell viability (MDA-MB-231 Vector; 5 µM) | cell viability (MDA-MB-231 tGLI1; 0.05 µM) | cell viability (MDA-MB-231 tGLI1; 0.5 µM) | cell viability (MDA-MB-231 tGLI1; 5 µM) | cell viability (MDA-MB-231BRM GLI1; 0.05 µM) | cell viability (MDA-MB-231BRM GLI1; 0.5 µM) | cell viability (MDA-MB-231BRM GLI1; 5 µM) | cell viability (MDA-MB-231BRM Vector; 0.05 µM) | cell viability (MDA-MB-231BRM Vector; 0.5 µM) | cell viability (MDA-MB-231BRM Vector; 5 µM) | cell viability (MDA-MB-231BRM tGLI1; 0.05 µM) | cell viability (MDA-MB-231BRM tGLI1; 0.5 µM) | cell viability (MDA-MB-231BRM tGLI1; 5 µM) |
| --- | --- | --- | --- | --- | --- | --- | --- | --- | --- | --- | --- | --- | --- | --- | --- | --- | --- | --- |
| COc1ccc2[nH]cc(CCNC(C)=O)c2c1 [Melatonin] | 1.04 | 1.06 | 1.12 | 1.03 | 1.01 | 1.14 | 0.99 | 0.988 | 1.05 | 1.07 | 0.972 | 0.975 | 1.01 | 1.05 | 1.01 | 1.11 | 0.988 | 1.07 |
| Cc1c(NC(=O)OC[C@@H]2COCCN2)cn2ncnc(Nc3ccc4c(cnn4Cc4cccc(F)c4)c3)c12 | 1.45 | 1.68 | 0.978 | 1.56 | 1.19 | 0.815 | 1.16 | 1.48 | 0.89 | 0.957 | 0.985 | 0.761 | 0.921 | 0.874 | 0.794 | 1.06 | 0.858 | 0.863 |
| O=c1ncn2nc(Sc3ccc(F)cc3F)ccc2c1-c1c(Cl)cccc1Cl | 1.41 | 1.48 | 1.79 | 0.936 | 1.22 | 1.41 | 1.21 | 1.39 | 1.45 | 1.15 | 0.686 | 0.889 | 1.1 | 1.06 | 0.927 | 1.05 | 0.659 | 0.87 |
| Cc1ccc(Nc2nccc(N(C)c3ccc4c(C)n(C)nc4c3)n2)cc1S(N)(=O)=O [Pazopanib HCl] | 1.16 | 1.16 | 1.18 | 1.41 | 1.31 | 1.37 | 1.17 | 1.04 | 1 | 1.02 | 0.971 | 0.828 | 1.08 | 0.973 | 0.952 | 1.08 | 1.01 | 0.933 |
| CCCS(=O)(=O)Nc1ccc(F)c(C(=O)c2c[nH]c3ncc(Cl)cc23)c1F | 1.48 | 1.75 | 1.3 | 1.38 | 1.33 | 1.09 | 1.33 | 1.64 | 1.09 | 0.996 | 0.999 | 0.97 | 1.03 | 0.968 | 0.951 | 0.948 | 0.96 | 0.975 |
| C=CC(=O)Nc1ccc(CN2C(=O)N(c3cc(OC)cc(OC)c3)Cc3cnc(Nc4ccc(N5CCN(C)CC5)cc4)nc32)cc1 | 2.16 | 2.83 | 1.15 | 1.12 | 1.27 | 0.565 | 1.29 | 1.28 | 0.571 | 0.814 | 0.7 | 0.686 | 0.879 | 0.706 | 0.688 | 1.21 | 1.04 | 1.06 |
| Cc1cnc(NC(=O)Nc2cc(Br)c(C)cc2OC[C@@H]2CNCCO2)cn1 | 1.18 | 1.23 | 0.115 | 1.27 | 1.1 | 0.292 | 1.29 | 1.26 | 0.164 | 1.01 | 1.13 | 1.12 | 1.04 | 1.06 | 1.14 | 1.05 | 1.14 | 1.05 |
| N#Cc1c(Oc2ccc(F)c(NC(=O)Cc3cccc(C(F)(F)F)c3)c2)ccc2nc(NC(=O)C3CC3)sc12 | 1.02 | 0.777 | 0.42 | 0.828 | 0.6 | 0.486 | 1.09 | 0.683 | 0.438 | 1.11 | 1.03 | 0.921 | 1.19 | 1.14 | 0.895 | 1.03 | 1.05 | 0.897 |
| O=C1Nc2ccc(I)cc2/C1=C/c1cc(Br)c(O)c(Br)c1 | 0.91 | 1.14 | 0.631 | 1.07 | 1.25 | 1.06 | 0.995 | 1.21 | 0.921 | 0.993 | 0.906 | 0.886 | 1 | 0.901 | 0.925 | 1.04 | 0.881 | 0.919 |
| CNC(=O)CN1CCC(Oc2cc3c(Nc4cccc(Cl)c4F)ncnc3cc2OC)CC1 [AZD8931 (Sapitinib)] | 1.38 | 1.35 | 1.39 | 1.68 | 1.2 | 1.08 | 1.3 | 1.33 | 1.13 | 1.09 | 1.12 | 0.903 | 1.16 | 1.03 | 1.01 | 1.08 | 1.16 | 0.935 |
| Cc1cc(C)c(/C=C2\C(=O)Nc3ccccc32)[nH]1 [Semaxanib (SU5416)] | 1.06 | 1.09 | 1.03 | 1.2 | 1.25 | 1.14 | 1.18 | 1.03 | 0.928 | 0.978 | 0.997 | 0.911 | 0.989 | 0.969 | 0.923 | 1.01 | 1.03 | 0.958 |
| COc1cc2c(Oc3ccc4[nH]c(C)cc4c3F)ncnc2cc1OCCCN1CCCC1 [Cediranib (AZD2171)] | 1.04 | 1.41 | 0.155 | 0.876 | 0.863 | 0.225 | 0.77 | 1.09 | 0.465 | 0.943 | 0.919 | 0.886 | 0.854 | 0.878 | 0.816 | 0.978 | 0.877 | 0.794 |
| CCN(CC)CCNC(=O)c1c(C)[nH]c(/C=C2\C(=O)Nc3ccc(F)cc32)c1C [Sunitinib Malate (Sutent)] | 1.57 | 1.41 | 0.469 | 1.78 | 1.27 | 0.405 | 1.46 | 1.2 | 0.379 | 1.05 | 1.08 | 0.539 | 1.02 | 0.999 | 0.665 | 1.04 | 1.01 | 0.698 |
| CS(=O)(=O)c1ccc(C(=O)Nc2ccc(Cl)c(-c3ccccn3)c2)c(Cl)c1 [Vismodegib (GDC-0449)] | 1.31 | 1.14 | 1.2 | 1.33 | 1.2 | 1.21 | 1.14 | 1.14 | 1.15 | 1.03 | 1.01 | 0.938 | 0.981 | 1.04 | 0.966 | 0.993 | 1.05 | 1.01 |
| CC(C)N(CCC(=O)c1ccc2ccccc2c1)Cc1ccccc1 | 2.49 | 3.17 | 1.81 | 1.37 | 1.29 | 1.03 | 1.42 | 1.55 | 1.1 | 0.905 | 0.805 | 0.813 | 0.924 | 0.832 | 0.92 | 1.14 | 1.06 | 1.12 |
| CN(C[C@@H]1COCCO1)S(=O)(=O)Nc1ccc2ccc3ncc(-c4cnn(C)c4)cc3c(=O)c2c1 | 1.29 | 1.38 | 0.959 | 1.36 | 1.36 | 0.825 | 1.4 | 1.17 | 0.96 | 0.935 | 0.693 | 0.381 | 0.844 | 0.753 | 0.389 | 0.831 | 0.806 | 0.343 |
| Cc1ccc(-c2cc(C(F)(F)F)nn2-c2ccc(S(N)(=O)=O)cc2)cc1 [Celecoxib] | 1.02 | 1.13 | 1.02 | 1.54 | 1.03 | 0.92 | 1.14 | 1.07 | 1.1 | 1.05 | 1.05 | 0.884 | 1.07 | 0.956 | 0.898 | 1.04 | 1.01 | 0.982 |
| O=c1cc(N2CCOCC2)oc2c(-c3cccc4c3sc3ccccc34)cccc12 | 1.37 | 1.16 | 0.555 | 1.18 | 1.22 | 0.672 | 1.45 | 1.21 | 0.618 | 0.991 | 0.943 | 0.784 | 1.06 | 1.06 | 0.783 | 1.07 | 0.992 | 0.851 |
| O=C(Nc1cc(C(F)(F)F)cc(C(F)(F)F)c1)c1cc(Cl)ccc1O | 0.561 | 0.647 | -0.127 | 0.755 | 0.715 | -0.029 | 0.759 | 0.811 | -0.111 | 0.99 | 0.988 | 0.911 | 1.08 | 1.06 | 0.82 | 1.01 | 1.04 | 0.999 |
| Cc1nc(Nc2cnn(C3CCNCC3)c2)nc2c1N(C)C(=O)c1cc3ccccc3cc1N2C | 1.17 | 1.28 | 0.417 | 1.39 | 1.25 | 0.43 | 1.34 | 1.53 | 0.522 | 0.948 | 0.898 | 0.836 | 0.997 | 0.968 | 0.826 | 0.989 | 0.897 | 0.831 |
| Nc1nc(Nc2ccc(S(N)(=O)=O)cc2)nn1C(=O)c1c(F)cccc1F | 1.23 | 1.11 | 0.141 | 1.82 | 1.04 | 0.17 | 1.06 | 0.395 | 0.136 | 1.16 | 1.17 | 0.95 | 1 | 1.17 | 0.563 | 1.11 | 0.634 | 0.484 |
| N#Cc1c(NC(=O)c2cccc3ccccc23)sc2c1CCCC2 [JNK Inhibitor IX] | 2.03 | 0.611 | 0.493 | 0.75 | 0.182 | 0.164 | 0.81 | 0.213 | 0.211 | 0.951 | 0.907 | 0.723 | 0.974 | 0.975 | 0.758 | 1.33 | 1.21 | 0.998 |

Some values from the results shown.
CCCS(=O)(=O)Nc1ccc(F)c(C(=O)c2c[nH]c3ncc(Cl)cc23)c1F | cell viability (MDA-MB-231BRM GLI1; 0.5 µM): 0.999
Cc1cnc(NC(=O)Nc2cc(Br)c(C)cc2OC[C@@H]2CNCCO2)cn1 | cell viability (MDA-MB-231 Vector; 0.05 µM): 1.27
